Measurements published in patent publication EP1141005B1 (Angiogenetics Sweden AB, dated 2007).

By UniProt entry, the sequences of proteins in these tests, tags left out.
UniProt Q16665, whole entry: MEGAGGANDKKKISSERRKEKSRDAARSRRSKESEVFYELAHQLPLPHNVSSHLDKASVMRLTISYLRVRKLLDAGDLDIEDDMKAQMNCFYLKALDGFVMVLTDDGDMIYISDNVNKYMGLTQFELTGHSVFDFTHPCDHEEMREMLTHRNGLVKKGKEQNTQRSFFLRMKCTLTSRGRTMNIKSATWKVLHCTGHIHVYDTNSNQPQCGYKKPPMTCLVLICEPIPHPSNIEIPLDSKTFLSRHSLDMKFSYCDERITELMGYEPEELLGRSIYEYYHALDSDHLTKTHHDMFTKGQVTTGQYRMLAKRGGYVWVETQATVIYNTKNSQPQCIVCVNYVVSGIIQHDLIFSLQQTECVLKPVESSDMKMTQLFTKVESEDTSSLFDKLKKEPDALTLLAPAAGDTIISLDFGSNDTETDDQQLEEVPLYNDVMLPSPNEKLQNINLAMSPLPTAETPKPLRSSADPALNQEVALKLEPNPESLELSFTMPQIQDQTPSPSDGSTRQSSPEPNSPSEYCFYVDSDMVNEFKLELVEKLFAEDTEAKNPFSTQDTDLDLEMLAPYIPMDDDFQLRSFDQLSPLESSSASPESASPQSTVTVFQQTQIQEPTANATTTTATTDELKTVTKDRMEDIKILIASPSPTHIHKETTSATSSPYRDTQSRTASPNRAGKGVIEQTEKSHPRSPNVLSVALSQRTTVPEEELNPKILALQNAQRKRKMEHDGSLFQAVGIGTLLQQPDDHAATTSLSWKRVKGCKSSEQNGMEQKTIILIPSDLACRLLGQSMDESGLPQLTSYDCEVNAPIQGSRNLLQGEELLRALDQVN

Tests used:
Test in all cases: cell-based or functional assay
[1] = target: HIF-1α (wild-type human HIF-1α expressed from pCMV4/HIF-1α) (human, UniProt Q16665 1-826, limits assumed)
GAL4/HIF 531-584 = GAL4/HIF 531-584 (human, UniProt P04386 1-147 (Saccharomyces cerevisiae entry), [35S]methionine-labeled in the pull-down of paragraph 60 (in vitro translated))
GAL4/HIF 776-826 = GAL4/HIF 776-826 (human, UniProt P04386 1-147 (Saccharomyces cerevisiae entry), [35S]methionine-labeled in the pull-down of paragraph 60 (in vitro translated))

B1: SRC-1 (full-length transcriptional coactivator SRC-1) (other, human, UniProt Q15788 1-1441, looked up)
chain: MSGLGDSSSDPANPDSHKRKGSPCDTLASSTEKRRREQENKYLEELAELLSANISDIDSLSVKPDKCKILKKTVDQIQLMKRMEQEKSTTDDDVQKSDISSSSQGVIEKESLGPLLLEALDGFFFVVNCEGRIVFVSENVTSYLGYNQEELMNTSVYSILHVGDHAEFVKNLLPKSLVNGVPWPQEATRRNSHTFNCRMLIHPPDEPGTENQEACQRYEVMQCFTVSQPKSIQEDGEDFQSCLICIARRLPRPPAITGVESFMTKQDTTGKIISIDTSSLRAAGRTGWEDLVRKCIYAFFQPQGREPSYARQLFQEVMTRGTASSPSYRFILNDGTMLSAHTKCKLCYPQSPDMQPFIMGIHIIDREHSGLSPQDDTNSGMSIPRVNPSVNPSISPAHGVARSSTLPPSNSNMVSTRINRQQSSDLHSSSHSNSSNSQGSFGCSPGSQIVANVALNQGQASSQSSNPSLNLNNSPMEGTGISLAQFMSPRRQVTSGLATRPRMPNNSFPPNISTLSSPVGMTSSACNNNNRSYSNIPVTSLQGMNEGPNNSVGFSASSPVLRQMSSQNSPSRLNIQPAKAESKDNKEIASILNEMIQSDNSSSDGKPLDSGLLHNNDRLSDGDSKYSQTSHKLVQLLTTTAEQQLRHADIDTSCKDVLSCTGTSNSASANSSGGSCPSSHSSLTERHKILHRLLQEGSPSDITTLSVEPDKKDSASTSVSVTGQVQGNSSIKLELDASKKKESKDHQLLRYLLDKDEKDLRSTPNLSLDDVKVKVEKKEQMDPCNTNPTPMTKPTPEEIKLEAQSQFTADLDQFDQLLPTLEKAAQLPGLCETDRMDGAVTSVTIKSEILPASLQSATARPTSRLNRLPELELEAIDNQFGQPGTGDQIPWTNNTVTAINQSKSEDQCISSQLDELLCPPTTVEGRNDEKALLEQLVSFLSGKDETELAELDRALGIDKLVQGGGLDVLSERFPPQQATPPLIMEERPNLYSQPYSSPSPTANLPSPFQGMVRQKPSLGTMPVQVTPPRGAFSPGMGMQPRQTLNRPPAAPNQLRLQLQQRLQGQQQLIHQNRQAILNQFAATAPVGINMRSGMQQQITPQPPLNAQMLAQRQRELYSQQHRQRQLIQQQRAMLMRQQSFGNNLPPSSGLPVQMGNPRLPQGAPQQFPYPPNYGTNPGTPPASTSPFSQLAANPEASLANRNSMVSRGMTGNIGGQFGTGINPQMQQNVFQYPGAGMVPQGEANFAPSLSPGSSMVPMPIPPPQSSLLQQTPPASGYQSPDMKAWQQGAIGNNNVFSQAVQNQPTPAQPGVYNNMSITVSMAGGNTNVQNMNPMMAQMQMSSLQMPGMNTVCPEQINDPALRHTGLYCNQLSSTDLLKTEADGTQQVQQVQVFADVQCTVNLVGGDPYLNQPGPLGTQKPTSGPQTPQAQQKSLLQQLLTE
modifications: [35S]methionine-labeled in the pull-down of paragraph 40 (in vitro translated)
For B1, which “HRE-dependent reporter gene activity, COS7, normoxic conditions” value [1] is on record?
Its value is about 3 fold.

And the “GAL4-responsive reporter gene activity, COS7, hypoxic cells, overexpression of SRC-1” value (GAL4/HIF 531-584)?
Its value is 1.5 fold.

And the “GAL4-responsive reporter gene activity, COS7, in the presence of SRC-1” value (GAL4/HIF 776-826)?
The value was 17 fold.
